Results published in the supplement of paper PMC4604168 (melanoma cell lines).
The other results are listed elsewhere or left out. Single values are uncertain, as repeats are few or missing.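 Cells were imaged in 1,536-well plates, and nuclei stained with an antibody against cleaved PARP were counted against all DNA-stained nuclei to give the apoptosis fraction. Screening doses were chosen to leave most cells alive, and resting and induced cleaved-PARP levels differ strongly between cell lines.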

Columns and labels:
Assay in all cases: cleaved PARP positive nuclei fraction relative to DMSO control; melanoma cells; higher = more apoptosis
Settings in all cases: library dose: low library concentration; 72 h
501Mel = tested on: 501Mel
A101D = tested on: A101D
A2058 = tested on: A2058
A375 = tested on: A375
C32 = tested on: C32
CBRC008 = tested on: CBRC008 (line from a melanoma biopsy)
CBRC014 = tested on: CBRC014 (line from a melanoma biopsy)
CBRC016 = tested on: CBRC016 (line from a melanoma biopsy)
CBRC017 = tested on: CBRC017 (line from a melanoma biopsy)

Row | Structure (SMILES) | cleaved PARP positive nuclei fraction (501Mel) [%] | cleaved PARP positive nuclei fraction (A101D) [%] | cleaved PARP positive nuclei fraction (A2058) [%] | cleaved PARP positive nuclei fraction (A375) [%] | cleaved PARP positive nuclei fraction (C32) [%] | cleaved PARP positive nuclei fraction (CBRC008) [%] | cleaved PARP positive nuclei fraction (CBRC014) [%] | cleaved PARP positive nuclei fraction (CBRC016) [%] | cleaved PARP positive nuclei fraction (CBRC017) [%]
1 | CC1(C)CCC(c2ccc(Cl)cc2)=C(CN2CCN(c3ccc(C(=O)NS(=O)(=O)c4ccc(N[C@H](CCN5CCOCC5)CSc5ccccc5)c(S(=O)(=O)C(F)(F)F)c4)cc3)CC2)C1 + NC(=O)c1ccc(N(C(N)=O)c2c(F)cccc2F)nc1-c1ccc(F)cc1F [VX702] (first compound 0.4 µM, partner dose 0.4 µM) | 248 | 277 | 85.2 | 739 | 149 | 589 | 819 | 868 | 249
2 | CC(=O)O[C@@]12CO[C@@H]1C[C@H](O)[C@@]1(C)C(=O)[C@H](O)C3=C(C)[C@@H](OC(=O)[C@H](O)[C@@H](NC(=O)OC(C)(C)C)c4ccccc4)C[C@@](O)([C@@H](OC(=O)c4ccccc4)[C@H]21)C3(C)C [Docetaxel] + Cc1nc(Nc2ncc(C(=O)Nc3c(C)cccc3Cl)s2)cc(N2CCN(CCO)CC2)n1 [dasatanib] (first compound 0.0001 µM, partner dose 0.004 µM) | 142 | 411 | 2700 | 2500 | 139 | 517 | 257 | 257 | 289
3 | Cn1cnc2c(F)c(Nc3ccc(Br)cc3Cl)c(C(=O)NOCCO)cc21 [selumetinib] + NC1(c2ccc(-c3nc4ccn5c(=O)[nH]nc5c4cc3-c3ccccc3)cc2)CCC1 [MK2206] (first compound 0.015 µM, partner dose 0.4 µM) | 4070 | 116 | 187 | 267 | 185 | 173 | 97.2 | 94.8 | 179
4 | NC(=O)c1ccc(N(C(N)=O)c2c(F)cccc2F)nc1-c1ccc(F)cc1F + CC(=O)O[C@@]12CO[C@@H]1C[C@H](O)[C@@]1(C)C(=O)[C@H](O)C3=C(C)[C@@H](OC(=O)[C@H](O)[C@@H](NC(=O)OC(C)(C)C)c4ccccc4)C[C@@](O)([C@@H](OC(=O)c4ccccc4)[C@H]21)C3(C)C [Docetaxel] (first compound 0.4 µM, partner dose 0.0001 µM) | 115 | 119 | 2580 | 583 | 454 | 643 | 135 | 2150 | 286
5 | C[C@@H](N)c1ccc(C(=O)Nc2ccnc3[nH]ccc23)cc1 + C[C@]1(O)C[C@@H](c2nc(-c3ccc4ccc(-c5ccccc5)nc4c3)c3c(N)nccn32)C1 [OSI906] (first compound 0.4 µM, partner dose 0.4 µM) | 80.3 | 50.9 | 226 | 783 | 173 | 353 | 249 | 125 | 168
6 | C[C@]1(O)C[C@@H](c2nc(-c3ccc4ccc(-c5ccccc5)nc4c3)c3c(N)nccn32)C1 + Clc1ccc(Nc2nnc(Cc3ccncc3)c3ccccc23)cc1 [vatalanib] (first compound 0.4 µM, partner dose 2 µM) | 190 | 50.2 | 135 | 539 | 80.8 | 161 | 125 | 141 | 137
7 | NC1(c2ccc(-c3nc4ccn5c(=O)[nH]nc5c4cc3-c3ccccc3)cc2)CCC1 + C=C(c1ccc(C(=O)O)cc1)c1cc2c(cc1C)C(C)(C)CCC2(C)C [Bexarotene] (first compound 0.4 µM, partner dose 2 µM) | 88.5 | 157 | 77.6 | 119 | 82.3 | 196 | 90.8 | 51.2 | 118
8 | COc1ccc(C2=N[C@@H](c3ccc(Cl)cc3)[C@@H](c3ccc(Cl)cc3)N2C(=O)N2CCNC(=O)C2)c(OC(C)C)c1 [Nutlin-3] + CN(c1ncccc1CNc1nc(Nc2ccc3c(c2)CC(=O)N3)ncc1C(F)(F)F)S(C)(=O)=O [PF562271] (first compound 0.1 µM, partner dose 0.08 µM) | 94.8 | 160 | 29.2 | 87.2 | 78.1 | 46.7 | 96.6 | 84.3 | 306
9 | NC1(c2ccc(-c3nc4ccn5c(=O)[nH]nc5c4cc3-c3ccccc3)cc2)CCC1 + Cn1nnc2c(C(N)=O)ncn2c1=O [temozolomide] (first compound 0.4 µM, partner dose 2 µM) | 287 | 29.4 | 53.3 | 250 | 64.8 | 93 | 108 | 46.6 | 81.4
10 | CS(=O)(=O)c1ccc(C(=O)Nc2ccc(Cl)c(-c3ccccn3)c2)c(Cl)c1 [vismodegib] + CCCCCCCCc1ccc(CCC(N)(CO)CO)cc1 [fingolimod] (first compound 1 µM, partner dose 2 µM) | 252 | 88.8 | 74.3 | 106 | 91 | 51.9 | 97.3 | 120 | 152
11 | CN(c1ncccc1CNc1nc(Nc2ccc3c(c2)CC(=O)N3)ncc1C(F)(F)F)S(C)(=O)=O + C[C@@H](Oc1cc(-c2cnn(C3CCNCC3)c2)cnc1N)c1c(Cl)ccc(F)c1Cl [Crizotinib] (first compound 0.08 µM, partner dose 0.2 µM) | 101 | 50.8 | 137 | 57.4 | 92.8 | 47 | 111 | 126 | 103

Part of the list above, in markdown.

| Row | Structure (SMILES) | cleaved PARP positive nuclei fraction (501Mel) [%] | cleaved PARP positive nuclei fraction (A101D) [%] | cleaved PARP positive nuclei fraction (A2058) [%] | cleaved PARP positive nuclei fraction (A375) [%] | cleaved PARP positive nuclei fraction (C32) [%] | cleaved PARP positive nuclei fraction (CBRC008) [%] | cleaved PARP positive nuclei fraction (CBRC014) [%] | cleaved PARP positive nuclei fraction (CBRC016) [%] | cleaved PARP positive nuclei fraction (CBRC017) [%] |
| --- | --- | --- | --- | --- | --- | --- | --- | --- | --- | --- |
| 7 | NC1(c2ccc(-c3nc4ccn5c(=O)[nH]nc5c4cc3-c3ccccc3)cc2)CCC1 + C=C(c1ccc(C(=O)O)cc1)c1cc2c(cc1C)C(C)(C)CCC2(C)C [Bexarotene] (first compound 0.4 µM, partner dose 2 µM) | 88.5 | 157 | 77.6 | 119 | 82.3 | 196 | 90.8 | 51.2 | 118 |
| 8 | COc1ccc(C2=N[C@@H](c3ccc(Cl)cc3)[C@@H](c3ccc(Cl)cc3)N2C(=O)N2CCNC(=O)C2)c(OC(C)C)c1 [Nutlin-3] + CN(c1ncccc1CNc1nc(Nc2ccc3c(c2)CC(=O)N3)ncc1C(F)(F)F)S(C)(=O)=O [PF562271] (first compound 0.1 µM, partner dose 0.08 µM) | 94.8 | 160 | 29.2 | 87.2 | 78.1 | 46.7 | 96.6 | 84.3 | 306 |
